{"source": "PubChem BioAssay AID1259254 (NCATS, 2017)", "aim": "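Gene knock-downs that lead to re-replication, shown by excess G2 DNA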 (primary screen)", "cells": "human HCT116 colorectal cancer cells", "knock-down reagent": "single siRNA against human genes", "timing": "3 days", "read-out": "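Nuclei stained with Hoechst and imaged; cell-cycle phase assigned by DNA content; G2 share scaled per plate, non-targeting siRNA 0%, GMNN siRNA 100%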", "scale": "G2 robust z-score and G2 cells, % of GMNN control: higher = more G2 cells, more excess DNA replication", "call rule": "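An siRNA counts as active if its G2 robust z-score lies at least 5 MADs above the screen median; here such calls match roughly 38% of GMNN control or more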", "note": "Here is one part, drawn at random, of about 59,000 reagents tested. About 1,550 of them (2.6%) were called active. 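G2 share is only a proxy for re-replication; each gene was hit by three separate siRNAs, and active genes were retested.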 Further read-outs or replicates are left out here. Not given: the amount of reagent."}
{"Gene":"IL1A","PubChem SID":"SID160775672","G2 robust z-score":3.75,"G2 cells, % of GMNN control":29.3,"outcome":"inactive"}
{"Gene":"IL1A","PubChem SID":"SID160775673","G2 robust z-score":-0.564,"G2 cells, % of GMNN control":-1,"outcome":"inactive"}
{"Gene":"IL1A","PubChem SID":"SID160775674","G2 robust z-score":0.276,"G2 cells, % of GMNN control":4.91,"outcome":"inactive"}
{"Gene":"ACOX3","PubChem SID":"SID160719830","G2 robust z-score":1,"G2 cells, % of GMNN control":10,"outcome":"inactive"}
{"Gene":"ACOX3","PubChem SID":"SID160719831","G2 robust z-score":0.985,"G2 cells, % of GMNN control":9.9,"outcome":"inactive"}
{"Gene":"ACOX3","PubChem SID":"SID160719832","G2 robust z-score":-0.828,"G2 cells, % of GMNN control":-2.85,"outcome":"inactive"}
{"Gene":"INSL6","PubChem SID":"SID160730114","G2 robust z-score":0.711,"G2 cells, % of GMNN control":7.97,"outcome":"inactive"}
{"Gene":"INSL6","PubChem SID":"SID160730115","G2 robust z-score":-1.2,"G2 cells, % of GMNN control":-5.51,"outcome":"inactive"}
{"Gene":"INSL6","PubChem SID":"SID160730116","G2 robust z-score":-0.549,"G2 cells, % of GMNN control":-0.896,"outcome":"inactive"}
{"Gene":"NLGN2","PubChem SID":"SID160746259","G2 robust z-score":-0.7,"G2 cells, % of GMNN control":-1.96,"outcome":"inactive"}
{"Gene":"NLGN2","PubChem SID":"SID160746260","G2 robust z-score":-0.316,"G2 cells, % of GMNN control":0.742,"outcome":"inactive"}
{"Gene":"NLGN2","PubChem SID":"SID160746263","G2 robust z-score":-1.03,"G2 cells, % of GMNN control":-4.27,"outcome":"inactive"}
{"Gene":"PEX6","PubChem SID":"SID160714111","G2 robust z-score":-0.718,"G2 cells, % of GMNN control":-2.08,"outcome":"inactive"}
{"Gene":"PEX6","PubChem SID":"SID160714113","G2 robust z-score":2.23,"G2 cells, % of GMNN control":18.7,"outcome":"inactive"}
{"Gene":"PEX6","PubChem SID":"SID160714114","G2 robust z-score":-0.882,"G2 cells, % of GMNN control":-3.24,"outcome":"inactive"}
{"Gene":"ADM","PubChem SID":"SID160714640","G2 robust z-score":-1.32,"G2 cells, % of GMNN control":-6.34,"outcome":"inactive"}
{"Gene":"ADM","PubChem SID":"SID160714651","G2 robust z-score":-1.36,"G2 cells, % of GMNN control":-6.58,"outcome":"inactive"}
{"Gene":"ADM","PubChem SID":"SID160714661","G2 robust z-score":-0.92,"G2 cells, % of GMNN control":-3.5,"outcome":"inactive"}
{"Gene":"SLC22A25","PubChem SID":"SID160765606","G2 robust z-score":-0.659,"G2 cells, % of GMNN control":-1.67,"outcome":"inactive"}
{"Gene":"SLC22A25","PubChem SID":"SID160765607","G2 robust z-score":-0.969,"G2 cells, % of GMNN control":-3.85,"outcome":"inactive"}
{"Gene":"SLC22A25","PubChem SID":"SID160765608","G2 robust z-score":0.421,"G2 cells, % of GMNN control":5.93,"outcome":"inactive"}
{"Gene":"LARP4","PubChem SID":"SID160754820","G2 robust z-score":-0.673,"G2 cells, % of GMNN control":-1.77,"outcome":"inactive"}
{"Gene":"LARP4","PubChem SID":"SID160754821","G2 robust z-score":1.11,"G2 cells, % of GMNN control":10.8,"outcome":"inactive"}
{"Gene":"LARP4","PubChem SID":"SID160754822","G2 robust z-score":-0.427,"G2 cells, % of GMNN control":-0.0384,"outcome":"inactive"}
{"Gene":"ACSBG1","PubChem SID":"SID160735708","G2 robust z-score":2.63,"G2 cells, % of GMNN control":21.5,"outcome":"inactive"}
{"Gene":"ACSBG1","PubChem SID":"SID160735709","G2 robust z-score":2.73,"G2 cells, % of GMNN control":22.2,"outcome":"inactive"}
{"Gene":"ACSBG1","PubChem SID":"SID160735710","G2 robust z-score":-0.0353,"G2 cells, % of GMNN control":2.72,"outcome":"inactive"}
{"Gene":"PTPN7","PubChem SID":"SID160715366","G2 robust z-score":0.845,"G2 cells, % of GMNN control":8.91,"outcome":"inactive"}
{"Gene":"PTPN7","PubChem SID":"SID160715367","G2 robust z-score":1.28,"G2 cells, % of GMNN control":12,"outcome":"inactive"}
{"Gene":"PTPN7","PubChem SID":"SID160715369","G2 robust z-score":-1.34,"G2 cells, % of GMNN control":-6.43,"outcome":"inactive"}

A few values from the list:
Entry of IL1A [SID160775672] under “outcome”: inactive
NLGN2 [SID160746260], G2 robust z-score: -0.316
Entry for ACSBG1 [SID160735710] under “G2 cells, % of GMNN control”: 2.72
Under “outcome”, ACOX3 [SID160719830] reads inactive
For “outcome”, PEX6 [SID160714111] reads inactive
